1 compound from patent US9365868B2, “Fermentation process for producing isopropanol using a recombinant microorganism” (LANZATECH NEW ZEALAND LIMITED, priority 2011, dated 2016) can be followed below.

Common to all, as to assay: Addition of acetone to growing cultures (conversion to isopropanol)
Series [1] relates to Acetobacterium woodii DSM1030. The class given is cell-based. As to conditions: PETC (pH 8.2); acetone 10.81 g/l directly after addition.
For series [2], the system named is Clostridium aceticum DSM1496. The class given is cell-based. To be noted: PETC (pH 7.4); acetone 10.07 g/l directly after addition.
In series [3] the test system is C. autoethanogenum DSM23693. It is filed as cell-based, Clostridium autoethanogenum.
Series [4] concerns C. carboxidivorans DSM15243. The class given is cell-based, Clostridium carboxidivorans. As to conditions: PETC (pH 5.9); acetone 10.43 g/l directly after addition.
For the next series, the system named is C. ljungdahlii DSM13528. It is filed as cell-based, Clostridium ljungdahlii. To be noted: PETC (pH 5.9); acetone 10.23 g/l directly after addition.
The subject of series [5] is C. ragsdalei ATCC BAA-622. The class given is cell-based, Clostridium ragsdalei. To be noted: PETC (pH 5.9); acetone 11.25 g/l directly after addition.
For series [6], the system named is C. beijerinckii NRRL-B593. The class given is cell-based, Clostridium beijerinckii. To be noted: RCM; acetone 9.96 g/l directly after addition.
In series [7] the test system is C. acetobutylicum ATCC824. It is filed as cell-based, Clostridium acetobutylicum. To be noted: RCM; acetone 10.80 g/l directly after addition.
Setting [8] is: PETC (pH 5.9), acetone 9.25 g/l added.

On to `CC(C)=O` [acetone], for which the “Acetone [g/l] End of growth” value in series [1] came to 10.83 g/L; in series [2], 10.09 g/L; in series [3] (setting [8]), 1.13 g/L; in series [4], 10.34 g/L; with C. ljungdahlii DSM13528, 3.73 g/L; in series [5], 9.94 g/L. Further, the “Acetone [g/l] End of growth” value in series [6] came out at 7.65 g/L; in series [7], 10.91 g/L. For the same compound, the “Isopropanol [g/l] End of growth” value turned out to be 0 g/L in series [1]; 0 g/L in series [2]; 8.03 g/L in series [3] (setting [8]); 0 g/L in series [4]; 6.54 g/L in the series with C. ljungdahlii DSM13528; 1.34 g/L in series [5]. In addition, the “Isopropanol [g/l] End of growth” value stood at 2.54 g/L in series [6] and 0 g/L in series [7]. For the same compound, the “Acetone [g/l] left at end of growth” value turned out to be 0.22 g/L in series [3] (acetone 1.66 g/l added), 17.82 g/L in series [3] (acetone 26.13 g/l added) and 43.30 g/L in series [3] (acetone 50.01 g/l added). Besides, the “Isopropanol [g/l] left at end of growth” value in series [3] (acetone 1.66 g/l added) was 1.48 g/L; in series [3] (acetone 26.13 g/l added) it was 8.39 g/L; in series [3] (acetone 50.01 g/l added), 6.95 g/L.
